Experimental data published in PubChem BioAssay AID485314 (National Center for Advancing Translational Sciences (NCATS), 2010).
Screen size: about 340,000 compounds; about 4,500 (1.3%) were called active. All entries are inconclusive by the source's own rule. Clear calls are listed elsewhere. The call rests on the fitted dose curve; in most records, active means well fitted inhibition curve with a large enough effect; inconclusive means small, poorly fitted or top-dose-only effect, or another doubt; inactive means no such curve, though single readings can be large or run the other way.

Target: DNA polymerase beta (Homo sapiens) (UniProt P06746)
Experiment: qHTS Assay for Inhibitors of DNA Polymerase Beta
Details: Pol beta primer extension/strand displacement, fluorescence kinetic
Excerpt: The base excision repair system in human cells is a target for therapeutic modulation of the response to irradiation treatment and DNA-damaging drugs. A key enzyme in this system is the bi-functional DNA polymerase known as DNA polymerase Beta (Pol Beta). The following is a homogeneous kinetic assay to study the primer extension and strand-displacement reaction catalyzed by pol beta.
A stepwise description of the 1536-well assay is shown in next Table. Three microliters of reagents (buffer in column 3 and 4 as negative control and 10 nM Pol beta in columns 1, 2, and 5-48) was dispensed into 1,536-well black solid-bottomed plate. Compounds (23 nL) were transferred via Kalypsys pin tool equipped with 1536-pin array (10 nL slotted pins, V&P Scientific, San Diego, CA). The plates were incubated for 15 min at room temperature, and 1 uL substrate (50 nM final concentration) were added to start the reaction and immediately read at 0 min read on Viewlux reader. The plate were further incubated for 10 min at room temperature, and then read on Viewlux again. Throughout the screen, reagent bottle and all liquid lines were chilled and made light-tight to minimize reagent degradation. All screening operations were performed on a fully integrated robotic system (Kalypsys, San Diego, CA) containing one RX-130 and two RX-90 anthropomorphic robotic arms (Staubli, Duncan, SC). Library plates were screened starting from the lowest and proceeding to the highest concentration, and a double-dipping step of the highest concentration was required to access higher concentrations of compounds. Vehicle-only plates, with DMSO being pin-transferred to the entire column 5-48 compound area, were inserted uniformly at the beginning and the end of each library in order to monitor for and record any shifts in the background, which can be affected by reagent dispensers or loss in enzyme activity overtime. Screening data were corrected, normalized, and concentration-effect relationships were derived by using publicly-available curve fitting algorithms developed in-house (http://ncgc.nih.gov/pub/openhts). […]
Potency means the concentration at half of the fitted maximal effect.

Row | Compound | Potency
1 | CC(C)(C)c1ccc(OP(C)(=O)Nc2ccc(SC(F)(F)F)cc2)cc1 (stereo not drawn) | inconclusive: 28.2 µM
2 | CC(C)c1ccc(OP(C)(=O)Nc2ccc(SC(F)(F)F)cc2)cc1 (stereo not drawn) | inconclusive: 5.62 µM
3 | CN(C)CCOC(=O)C(O)(c1ccccc1)C1CCCCC1 (stereo not drawn) | inconclusive: 79.4 µM
